We go through 63 compounds from PubChem BioAssay AID493014 (National Center for Advancing Translational Sciences (NCATS), 2011).

The other results are listed elsewhere or left out. Shown are side measurements of this screen, not its main read-out; they come without a call. The list favours compounds with an active or inconclusive main result. Potencies come from curve fits of mixed quality, noted in brackets.

This test can be described thus: qHTS Assay to Find Inhibitors of Chronic Active B-Cell Receptor Signaling. The following applies: ABC-DLBCL IkBa-CBG/CBR reporter, luminescence ratio (green luciferase fused to IkBa over red control in TMD8 lymphoma cells), 4 h. In a few lines:
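Cell line TMD8 (human ABC DLBCL), stably expressing tet-inducible CBG68-IkBa fusion and CBR; IMDM/0.5% FBS; cpd up to 46 uM; dox induction, 4 h, 37C/5% CO2; dual luminescence; green/red ratio; MG132 control.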

Setting [1] is: measured here: CBR red luminescence, cell number.
The mark [2] stands for this setting: measured here: IkBa-CBG green luminescence.

For the compound `CC(=O)c1ccc(NC(=O)Nc2sc(NS(=O)(=O)c3ccccc3)nc2C)cc1`, the AC50 under setting [1] is 11.2 µM [falling, single point].

`CCc1cccc(NC(=O)Cn2ncn3c(cc4ccccc43)c2=O)c1`: the AC50 under setting [1] is 3.55 µM [rising, partial curve, poor fit]. Turning to `COc1ccc(CNC(=O)CN2C(=O)NC3(CCCc4sccc43)C2=O)cc1OC` (stereo not given), the AC50 under setting [1] is 20.6 µM [rising, partial curve].

With `C=C(C)COc1ccc(-c2ncncc2-c2ccc(Br)cc2)c(O)c1`, the AC50 under setting [1] is 6.31 µM [rising, single point]. With `Cc1sc(N/N=C/c2ccco2)nc1-c1ccccc1`, the AC50 under setting [1] was 32.6 µM [falling, single point]. On the same count and under the same terms, the figure for `Cc1ccc([N+](=O)[O-])cc1-c1ccc(/C=N/NC(=O)CN2CCOCC2)o1` is 11.2 µM [rising, single point]; for `CC1=C(C(=O)OCc2ccccc2)C(c2ccc3ccccc3c2)NC(=O)N1CCCC(=O)O` (stereo not given) it is 22.4 µM [falling, single point].

On to `Brc1ccc(OCCCCCN2CCOCC2)cc1`, for which the half-maximal activity concentration (AC50) under setting [1] was 31.6 µM [rising, partial curve, poor fit]. `O=C(NC1CCCCCC1)c1c(O)nc2sccn2c1=O`: under setting [1], the AC50 was 14.6 µM [falling, single point]. Turning to `O=C(CCCN1CCc2[nH]c3ccc(F)cc3c2C1)c1ccc(F)cc1`, the AC50 under setting [1] was 10 µM [falling, single point].

With `CN1CCN(CC/C=C2/c3ccccc3Sc3ccc(S(=O)(=O)N(C)C)cc32)CC1`, under setting [1], the concentration at half-maximal activity (AC50) was 35.5 µM [falling, single point].

Take `C[C@@]12C(=O)Nc3cc(F)ccc3C(=O)N1[C@H]1c3cc(Br)ccc3OC[C@@H]1[C@@H]2c1ccccc1`: the half-maximal activity concentration (AC50) by setting is: under setting [1], 23.1 µM [falling, single point]; under setting [2], 4.61 µM [rising, full curve, poor fit]. Turning to `O=C(Nc1ccccc1)c1ccc(S(=O)(=O)Nc2cccc(O)c2)cc1`, under setting [1], the concentration at half-maximal activity (AC50) was 35.5 µM [falling, partial curve, poor fit]. Still for that read-out and setting: the figure for `CCOC(=O)c1sc(NC(=O)CCSC)nc1C` is 22.4 µM [falling, single point]. As to `CC(C)Nc1nc(NC(N)=S)nc(NC(C)(C)C)n1`, under setting [1], the AC50 was 2.82 µM [rising, full curve, poor fit]. With `Cc1cc(C)c(S(=O)(=O)NC2CCN(Cc3ccccc3)CC2)c(C)c1`, the AC50 under setting [1] was 20 µM [falling, partial curve]. Consider `O=C(CSc1nnc(CNC(=O)c2ccccc2F)o1)NCC1CCCO1` (stereo not given), for which the AC50 under setting [1] is 2.31 µM [rising, full curve, poor fit]. Consider `Cn1c(NCCCN2CCOCC2)nc2c1c(=O)n(Cc1ccc(Cl)cc1)c(=O)n2C`, for which the AC50 under setting [1] was 28.2 µM [falling, single point]. For the compound `CCCCNc1c(-c2ccc(OC)c(SC3CCCCC3)c2)nc2ccc(Cl)cn12`, the AC50 under setting [1] is 3.26 µM [rising, full curve, poor fit]. For `c1ccc2sc(Nc3nc4cc5c(cc4s3)OCO5)nc2c1`, under setting [1], the concentration at half-maximal activity (AC50) is 23.1 µM [falling, single point].

Turning to `O=[N+]([O-])c1ccc2oc(-c3cccc(O)c3)nc2c1`, under setting [1], the AC50 was 11.2 µM [falling, partial curve]. With `CSCCC(Nc1ccc(S(=O)(=O)N2CCOCC2)cc1[N+](=O)[O-])C(=O)OCC(=O)NCC(C)C` (stereo not given), the concentration at half-maximal activity (AC50) under setting [1] was 18.4 µM [rising, single point].

Turning to `O=C(Nc1cccc2ccccc12)c1ccc(Cn2cc(Cl)cn2)cc1`, the half-maximal activity concentration (AC50) under setting [1] is 11.2 µM [falling, partial curve, poor fit]. In the case of `COc1ccc(C2=CC(c3cc(OC)c(OC)c(OC)c3)NC(=S)N2)cc1` (stereo not given), the AC50 under setting [1] is 2.31 µM [rising, partial curve]. On the same count and under the same terms, then `COc1cccc(CN(C)C(=O)c2[nH]c(C)c(C(C)=O)c2C)c1OC`, with 17.8 µM [rising, single point]; and `CCOC(=O)Cn1nnc(-c2ccccc2)n1`, with 23.1 µM [rising, partial curve, poor fit]; and `CCCCCCCN(C(=O)CCl)c1ccccc1C`, with 11.6 µM [falling, partial curve]. On the same count and under the same terms, then `COc1ccc(CNC(=O)CCCn2ncn3c(cc4occc43)c2=O)cc1`, with 4.47 µM [rising, single point]. The same measure, in the same setting: then `C=CCn1cc(C(=O)OC)c(=O)c2cc(S(=O)(=O)N3CCCCCC3)ccc21`, with 20 µM [falling, partial curve, poor fit].

Consider `O=C1CCCC1C(=O)Nc1ccc2ccccc2c1` (stereo not given), for which, under setting [1], the AC50 was 1 µM [falling, full curve]. As to `CC(=O)N1CCC(N(CCN2CCOCC2)C(=S)Nc2ccc(C)c(C)c2)CC1`, the half-maximal activity concentration (AC50) under setting [1] is 11.2 µM [rising, partial curve].

As for `CC(C)(C)c1ccc(C(=O)CCC(=O)NCc2ccccc2)cc1`, the AC50 under setting [1] was 29.1 µM [rising, partial curve, poor fit] and the half-maximal activity concentration (AC50) under setting [2] is 29.1 µM [falling, partial curve, poor fit]. As for `CCS(=O)(=O)n1nc(-c2ccccc2)nc1SCc1ccccc1`, the AC50 under setting [1] was 10.3 µM [falling, partial curve, poor fit].

`c1ccc(-c2nc(-n3ccnc3)nc(-n3ccnc3)n2)cc1`: the AC50 under setting [1] was 5.8 µM [falling, partial curve]. Take `COc1ccc(C2C(C#N)=C(N)Oc3n[nH]c(C)c32)cc1CN1CCN(c2ccc(F)cc2)CC1` (stereo not given): the AC50 under setting [1] is 20 µM [falling, partial curve, poor fit].

`CCN(CC)CCN(C(=O)c1ccc(Br)s1)c1nc2cc3c(cc2s1)OCCO3`: the half-maximal activity concentration (AC50) under setting [1] was 10 µM [falling, partial curve, poor fit]. On to `Cc1ccc(-c2nnn(CC(=O)N(CC(=O)NC3CCCC3)c3cnc4ccccc4c3)n2)o1`, for which the half-maximal activity concentration (AC50) under setting [1] was 18.4 µM [rising, single point].

For the compound `COc1ccc(C(C(=O)NCc2ccccc2)N(Cc2ccc3c(c2)OCO3)C(=O)c2cnccn2)cc1` (stereo not given), the AC50 under setting [1] was 18.4 µM [rising, single point].

In the case of `CCn1cc(C2=NC(C)CO2)c2ccccc21` (stereo not given), the AC50 under setting [1] is 8.2 µM [rising, partial curve, poor fit]. Regarding `Clc1ccc2nc(CSc3nc4ccccc4o3)cn2c1`, the half-maximal activity concentration (AC50) under setting [1] is 3.26 µM [rising, partial curve, poor fit]. Same read-out and setting: the figure for `O=C(Cc1cccc2ccccc12)OCn1nnc2ccccc2c1=O` is 16.4 µM [falling, single point]. With `COc1ccc(C(C)=O)cc1COC(=O)CNC(=O)c1ccc(F)cc1`, under setting [1], the half-maximal activity concentration (AC50) was 18.4 µM [rising, partial curve]. Consider `CCOC(=O)CCc1c(C(=O)OCC)[nH]c(CC)c1C(=O)OCc1ccccc1`, for which the AC50 under setting [1] was 15.8 µM [falling, partial curve, poor fit].

`CCOC(=O)Cn1c(=NC(=O)CSC(C)=O)sc2cc(OC)ccc21`: the concentration at half-maximal activity (AC50) under setting [1] is 1.16 µM [falling, full curve, poor fit].

As for `CC1(C)CC(=O)C(C=Nc2ccc(O)cc2)=C(O)C1`, the half-maximal activity concentration (AC50) under setting [1] is 12.6 µM [falling, partial curve, poor fit]. Still for that read-out and setting: then `FC(F)(F)c1ccc(-n2cn[nH]c2=S)cc1`, with 31.6 µM [rising, single point]; and `COc1cc(/C=C/C(=O)O)cc(S(=O)(=O)NNC(=O)c2ccc3c(c2)OCO3)c1OC`, with 2.06 µM [falling, full curve, poor fit]; and `COc1ccccc1NC(=S)NCCSc1ccc(C)cc1`, with 2.91 µM [falling, partial curve, poor fit].

As for `Cc1ccc(S(=O)(=O)N2CCCCC2CCNC(=O)C(=O)Nc2ccccc2F)cc1` (stereo not given), the concentration at half-maximal activity (AC50) under setting [1] was 4.61 µM [falling, partial curve].

In the case of `Cc1ccc(C)c(N2CCN(C(=O)c3ccc(CSc4nc5ccncc5[nH]4)cc3)CC2)c1`, the half-maximal activity concentration (AC50) under setting [1] is 29.1 µM [falling, single point].

Take `COc1ccc(/C=C2\CN(Cc3ccccc3)C/C(=C\c3ccc(OC)c(O)c3)C2=O)cc1O`: under setting [1], the AC50 was 35.5 µM [falling, single point]. Still for that read-out and setting: the figure for `CCC(C)(C(=O)NC1CCCCC1)N(Cc1ccco1)C(=O)CC1NC(=O)NC1=O` (stereo not given) is 6.51 µM [falling, single point]; for `Cn1c(CN2CCCC2)nc2cc(NC(=O)Nc3ccccc3)ccc21` it is 14.6 µM [falling, partial curve, poor fit]; for `CS(=O)(=O)c1cccc(NC(=O)c2ccc(Cl)c(Cl)c2)c1` it is 2.82 µM [rising, full curve].

With `Cc1cc(C2=CC(C)(c3cc(C)oc3C)Nc3nc(C(F)(F)F)nn32)c(C)o1` (stereo not given), the AC50 under setting [1] is 15.8 µM [falling, partial curve]. On the same count and under the same terms, then `Cc1cc(C)cc(NC(=O)CSc2nccn2Cc2ccco2)c1`, with 5.62 µM [falling, full curve]; and `O=C(CCCN1C(=O)c2ccccc2C1=O)OC1CSCC1NC(=O)c1ccccc1` (stereo not given), with 2.24 µM [rising, partial curve, poor fit]. `O=C(O)C1CCC(c2ccc(-c3ccccc3)cc2)CC1` (stereo not given): under setting [1], the AC50 is 0.1 µM [falling, full curve, poor fit]. The same measure, in the same setting: then `CC(C)(C=O)Cc1cc(C(C)(C)C)c(O)c(C(C)(C)C)c1`, with 29.1 µM [rising, partial curve, poor fit]; and `c1ccc(-c2ccc(SCc3cccnc3)nn2)nc1`, with 12.6 µM [falling, partial curve, poor fit]; and `COc1ccc(-c2sc3cc4c(cc3c2C#Cc2cncn2C)OCO4)cc1`, with 32.6 µM [rising, partial curve, poor fit]. Still for that read-out and setting: the figure for `CCOC(=O)N(C)OC(=O)Nc1ccc(Cl)c(Cl)c1` is 5.01 µM [rising, full curve]; for `Cc1cc(NC(=O)CSc2nc(-c3cccs3)cc(C(F)(F)F)n2)no1` it is 6.51 µM [rising, single point].
